Results are given in words; binding and its absence hold for the method and conditions named. Some entries that bind do so weakly or less than the wild type. Tags and fused reporters may be left off the sequences shown.
T1: IL-31-CEE (purified recombinant human IL-31 fused at the C-terminal with the peptide EYMPME, produced in BHK cells) (human) (UniProt Q6EBC2)
T1 sequence: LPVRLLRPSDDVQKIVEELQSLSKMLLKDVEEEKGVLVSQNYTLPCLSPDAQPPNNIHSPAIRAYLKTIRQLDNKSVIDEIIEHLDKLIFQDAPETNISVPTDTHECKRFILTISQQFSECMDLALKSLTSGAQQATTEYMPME


How the values were obtained:
[1] = target: T1, IL-31-CEE (purified recombinant human IL-31 fused at the C-terminal with the peptide EYMPME, produced in BHK cells) (human); experiment: ELISA on plate bound IL-31-CEE, clone supernatants
[2] = target: T1, IL-31-CEE (purified recombinant human IL-31 fused at the C-terminal with the peptide EYMPME, produced in BHK cells) (human); experiment: plate based affinity ELISA, captured mAb, biotinylated rIL31-CEE
[3] = target: T1, IL-31-CEE (purified recombinant human IL-31 fused at the C-terminal with the peptide EYMPME, produced in BHK cells) (human); experiment: Western blot on non-reduced/denatured rIL31-CEE

binding [1] | binding [2] | binding [3] | Binder
binds | binds |  | mouse anti-human IL-31 mAb 292.51.5.2 (antibody, mouse IgG1, V domains shown) VH: EVQLVESGGDLVKPGGSLKLSCAASGFTFSSFVMSWVRQSPEKRLEWVATINSGGYYSFHPDSVKGRFTISRDNAKNTLYLQMSSLRSEDTAIYYCARQEGWSSAYFSYWGQGTLVTVSA VL: DIVMTQSPSSLAMSVGQKVTMICKSSQSLLNSSNQKNYLAWYQQKPGHSPKLLVSFTSTRESGVPDRFIGSGSGTDFTLTITNMQAEDLADYFCQQHYDTPYTFGGGTKLEIR
binds | binds |  | mouse anti-human IL-31 mAb 292.72.3.1 (antibody, mouse IgG2a, V domains shown) VH: QVQVQQSGAELARPGASVKLSCKASGYTLTRYWMQWVKQRPGQGLEWIGAIYPRDGDTRYSQKFKGKATLTADKSSTTAYMQLSSLASEDSAVYYCAYPDGSYAAPNGMEYWGQGSSVTVSS VL: DIQMSQSPASLSASVGETVTITCRASGSIHNYLAWYQQKQGKSPQLLVYNAETLADGVPSRFSGSGSGTQYSLKISSLQPEDFGTYYCQHFWITPWTFGGGTKLEIK
binds | binds | binds | mouse anti-human IL-31 mAb 292.84.1.6 (antibody, V domains shown) VH: QVQLQQSGAELARPGASVNLSCKASGYTLTRYWMQWVKQRPGQGLEWIGTIYPGDGDTRYSQKFKGKASLTADKSSNTAYMQLNNLASEDSAVYFCAFPDGYYAAPYGMDYWGQGTSVTVSS VL: DIQMTQSPASLSASVGETVTITCRASGNIHNYLAWYQQKQGRSPQLLVYNAKTLADGVPSRFSGSRSETQYSLKINSLQPEDFGSYYCQHFWSTPWTFGGGTKLEIK

Reference: patent publication US20190144533A1
